No constants are given. Whether binding was seen depends on the method and setting. In cells and extracts the contact can be indirect. Some entries that bind do so weakly or less than the wild type.
Molecular target: DExH-box helicase-9 (DHX9) (human (endogenous in HeLa)) (UniProt Q08211)
Assay: co-IP; HeLa cells with or without 100 uM H2O2 for 1 h, lysed in RIPA buffer (RNase inhibitor in the indicated groups); DHX9 antibody (sc-137232) or mouse IgG overnight at 4 C, protein A/G agarose beads; Western blot

The chains behind the UniProt entries cited, without tags or fusion partners.
UniProt Q08211: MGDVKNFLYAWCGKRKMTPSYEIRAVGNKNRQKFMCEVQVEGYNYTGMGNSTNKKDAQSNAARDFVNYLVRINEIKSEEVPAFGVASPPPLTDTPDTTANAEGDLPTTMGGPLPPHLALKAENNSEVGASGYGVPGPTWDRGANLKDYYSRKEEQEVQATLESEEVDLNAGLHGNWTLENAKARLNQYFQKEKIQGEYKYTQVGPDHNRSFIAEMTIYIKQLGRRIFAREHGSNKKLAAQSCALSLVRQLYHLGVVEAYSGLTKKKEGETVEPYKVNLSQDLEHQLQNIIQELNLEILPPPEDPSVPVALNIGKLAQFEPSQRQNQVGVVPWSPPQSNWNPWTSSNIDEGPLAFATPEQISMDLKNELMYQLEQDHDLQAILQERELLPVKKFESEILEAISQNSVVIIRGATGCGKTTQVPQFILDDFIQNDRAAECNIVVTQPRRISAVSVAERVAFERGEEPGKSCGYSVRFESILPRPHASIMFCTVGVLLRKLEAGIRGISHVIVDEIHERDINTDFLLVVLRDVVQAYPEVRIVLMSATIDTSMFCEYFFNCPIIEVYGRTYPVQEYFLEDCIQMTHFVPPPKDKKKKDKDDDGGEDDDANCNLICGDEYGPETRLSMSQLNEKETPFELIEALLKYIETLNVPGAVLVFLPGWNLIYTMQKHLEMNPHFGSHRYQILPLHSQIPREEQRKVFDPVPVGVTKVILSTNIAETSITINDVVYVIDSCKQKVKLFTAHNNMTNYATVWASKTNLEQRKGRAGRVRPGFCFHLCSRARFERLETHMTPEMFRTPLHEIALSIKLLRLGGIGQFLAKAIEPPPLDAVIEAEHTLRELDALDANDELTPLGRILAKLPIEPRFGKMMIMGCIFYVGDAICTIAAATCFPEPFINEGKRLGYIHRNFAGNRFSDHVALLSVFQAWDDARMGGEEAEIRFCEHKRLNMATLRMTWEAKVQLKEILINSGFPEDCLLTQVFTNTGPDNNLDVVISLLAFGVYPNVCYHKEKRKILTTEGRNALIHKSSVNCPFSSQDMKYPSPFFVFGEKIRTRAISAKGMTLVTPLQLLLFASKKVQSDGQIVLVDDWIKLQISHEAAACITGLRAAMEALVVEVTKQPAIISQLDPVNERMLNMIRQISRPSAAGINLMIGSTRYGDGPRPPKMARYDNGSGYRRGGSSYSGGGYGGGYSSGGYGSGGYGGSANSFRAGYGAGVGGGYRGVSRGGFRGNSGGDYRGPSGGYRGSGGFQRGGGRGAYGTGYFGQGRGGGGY
UniProt P55884: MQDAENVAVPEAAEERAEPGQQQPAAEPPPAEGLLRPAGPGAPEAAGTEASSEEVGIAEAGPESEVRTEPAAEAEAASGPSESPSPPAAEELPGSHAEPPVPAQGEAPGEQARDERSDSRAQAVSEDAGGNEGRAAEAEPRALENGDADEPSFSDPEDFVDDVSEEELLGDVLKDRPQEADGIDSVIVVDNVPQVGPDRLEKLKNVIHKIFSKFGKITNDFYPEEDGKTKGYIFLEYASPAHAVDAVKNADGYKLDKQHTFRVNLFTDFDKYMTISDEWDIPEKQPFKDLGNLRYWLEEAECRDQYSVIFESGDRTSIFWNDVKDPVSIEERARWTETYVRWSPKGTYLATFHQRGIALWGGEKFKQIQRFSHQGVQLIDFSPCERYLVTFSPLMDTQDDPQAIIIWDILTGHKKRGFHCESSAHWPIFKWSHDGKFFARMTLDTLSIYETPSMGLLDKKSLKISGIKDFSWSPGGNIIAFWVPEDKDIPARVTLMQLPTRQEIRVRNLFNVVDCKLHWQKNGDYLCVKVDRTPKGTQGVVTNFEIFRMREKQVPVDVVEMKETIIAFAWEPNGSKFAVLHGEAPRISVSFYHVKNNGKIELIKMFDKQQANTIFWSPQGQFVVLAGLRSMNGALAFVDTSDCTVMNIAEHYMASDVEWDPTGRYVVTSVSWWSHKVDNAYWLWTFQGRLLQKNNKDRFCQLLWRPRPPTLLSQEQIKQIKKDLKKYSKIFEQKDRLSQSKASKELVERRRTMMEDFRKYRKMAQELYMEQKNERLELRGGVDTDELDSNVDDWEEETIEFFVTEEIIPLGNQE
UniProt P05198: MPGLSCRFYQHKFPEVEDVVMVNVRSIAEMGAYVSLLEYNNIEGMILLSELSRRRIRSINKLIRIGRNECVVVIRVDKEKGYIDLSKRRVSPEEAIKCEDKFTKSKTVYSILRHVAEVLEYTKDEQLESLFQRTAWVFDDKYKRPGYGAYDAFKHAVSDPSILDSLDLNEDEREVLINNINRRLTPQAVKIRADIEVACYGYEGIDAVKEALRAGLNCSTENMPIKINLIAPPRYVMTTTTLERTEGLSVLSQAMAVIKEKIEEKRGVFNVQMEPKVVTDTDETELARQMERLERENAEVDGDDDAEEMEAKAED

binding	Substance
binds	eIF3η (from UniProt P55884 1-814)
no binding	eIF2α (from UniProt P05198 1-315)
